Values quoted from earlier work as cited in patent US20070243132A1, “Transdermal delivery of pharmaceutical agents” (priority 2005, published 2007).

Settings: microemulsions compared to a conventional oil-in-water emulsion; cited from earlier work

SMILES: CCN(CC)CC(=O)Nc1c(C)cccc1C [lidocaine]
- increase of transdermal flux: up to four times
